Record: PubChem BioAssay AID652259 (Drosophila RNAi Screening Center, 2013)
The deposit covers about 22,000 reagents; below is an unselected part of those that have a named target and a result. In the full data, 233 (1.1%) got an active call. 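Light values are raw, unnormalised plate reads; the ratio scores behind the reporter calls were not deposited.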 Reagents against one gene are numbered here. Names joined by + are all predicted targets of the reagent. Not stated in the record: the amount of reagent, the time to read-out, the dose of the treatment.

Assay: 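Identify new Wingless signalling regulators in fly cells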 (primary screen)
Cell system: Drosophila clone 8 imaginal disc epithelial cells
Reagents: long dsRNA against Drosophila genes
Conditions: pathway stimulated by co-transfected Wingless expression plasmid
Measured: 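Firefly luciferase from a tcf-site Wingless reporter, measured alongside co-transfected Renilla luciferase that tracks transfection; pathway stimulated by a Wingless plasmid; the firefly-to-Renilla ratio is not deposited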
Direction: firefly reporter light: higher = more Wg reporter light, before normalisation; Renilla control light: higher = more transfected or surviving cells
Call rule: 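a knock-down is a candidate when at least two out of four statistical tests show it departing from its plate mean; one test alone signals a weak candidate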
Meaning of the calls: active = candidate regulator (raises or lowers reporter); inactive = not a candidate

Gene,reagent,"reporter change call, replicate 1","firefly reporter light, replicate 1","firefly reporter light, replicate 2","Renilla control light, replicate 1","Renilla control light, replicate 2",Call
JTBR,1,,4586,,2261,,inactive
CCAP,1,,16845,,9929,,inactive
psidin,1,,18214,,4753,,inactive
CG6296,1,,1552,6210,930,1895,inactive
CG5339,1,,9312,,3302,,inactive
CR43087 + CR43086 + CG34002,1,,4339,,2131,,inactive
CG43059,1,,3792,,2192,,inactive
CG42857,1,,1895,,1184,,inactive
Rack1,1,,2103,6618,1078,4215,inactive
CG2217 + CG42740,1,,3123,6578,1104,2129,inactive
unc-13,1,,2528,,1349,,inactive
unc-13,2,,3163,,1297,,inactive
unc-13,3,,1961,7250,935,2360,inactive
CG3199,1,,11873,,2597,,inactive
CG7745,1,,9463,,1226,,inactive
CG5863,1,,13013,,2309,,inactive
CG1213,1,,13524,,2029,,inactive

Next part (3 carried over from the part before).
Gene,reagent,"reporter change call, replicate 1","firefly reporter light, replicate 1","firefly reporter light, replicate 2","Renilla control light, replicate 1","Renilla control light, replicate 2",Call
CG7745,1,,9463,,1226,,inactive
CG5863,1,,13013,,2309,,inactive
CG1213,1,,13524,,2029,,inactive
CG8750,1,,7120,,2231,,inactive
CG1636,1,Wg reporter activity lowered,4340,7725,1365,3121,inactive
PGAP5,1,,2810,7159,1123,3433,inactive
CG17944,1,,16548,,4460,,inactive
DIP1,1,,24902,6.08e5,10842,2.36e5,inactive
Polr3A,1,,16288,,7440,,inactive
CR17024,1,,2898,10556,1867,5329,inactive
TBC1d7,1,,14636,,15248,,inactive
Ythdc1,1,,7463,,3003,,inactive
Cht9,1,,9700,,2262,,inactive
mthl4,1,,9574,,3906,,inactive
Prosalpha7,1,,3952,,1706,,inactive
Ptpmeg,1,,12139,,3107,,inactive
CG2611,1,,12481,,4220,,inactive
Slimp,1,,3475,,1312,,inactive
GAPcenA,1,,1783,5083,1072,2421,inactive
CG10459,1,,3781,11978,1581,5031,inactive
CG10459,2,,6.02e5,6.50e5,2.67e5,2.96e5,inactive
nenya,1,,3399,,1440,,inactive
Dlc90F,1,,2072,5440,1142,1899,inactive
gsb,1,,3072,6453,685,2439,inactive
PDCD-5,1,,5892,,3162,,inactive
CG8517,1,,8185,,3157,,inactive
CG6602,1,,1656,7848,1104,3480,inactive
CG17177,1,,10614,,4672,,inactive
Vha36-1,1,,23730,,6498,,inactive
CG43190,1,,13616,,11043,,inactive
Ggt-1,1,,4019,11152,1093,3885,inactive
CG31683 + CG18858,1,,3296,8948,890,3372,inactive
CG18537,1,,5021,,2000,,inactive
CG31550,1,,12049,,3289,,inactive
CG31550,2,,6912,,2779,,inactive
